Literature values in patent US6436936B1, “Methods and compositions for treating disorders, using optically pure (+) zopiclone” (Sepracor Inc., priority 1991, dated 2002).
At least one compound was matched to its structure with a doubt left.

Test system: mice
Settings: reference agents, 3 per group, ten parameters scored, total score <40 of 60 denotes behavioral depression

Row | SMILES | ED100 [mg/kg]
1 | CNC1=Nc2ccc(Cl)cc2C(c2ccccc2)=[N+]([O-])C1 [chlordiazepoxide] | 100
2 | CN1CCN(C2=Nc3cc(Cl)ccc3Nc3ccccc32)CC1 [clozapine] | 25
